These are yes or no findings as the source states them, for the method shown. Binding seen in cells or lysates may run through a third protein. Some results given as binding are weak or reduced against the parent protein; the word gives no strength.

Amino acid sequences for entries named in this document (tags omitted). Residues count along the entry.
UniProt Q03431, residues 27-593: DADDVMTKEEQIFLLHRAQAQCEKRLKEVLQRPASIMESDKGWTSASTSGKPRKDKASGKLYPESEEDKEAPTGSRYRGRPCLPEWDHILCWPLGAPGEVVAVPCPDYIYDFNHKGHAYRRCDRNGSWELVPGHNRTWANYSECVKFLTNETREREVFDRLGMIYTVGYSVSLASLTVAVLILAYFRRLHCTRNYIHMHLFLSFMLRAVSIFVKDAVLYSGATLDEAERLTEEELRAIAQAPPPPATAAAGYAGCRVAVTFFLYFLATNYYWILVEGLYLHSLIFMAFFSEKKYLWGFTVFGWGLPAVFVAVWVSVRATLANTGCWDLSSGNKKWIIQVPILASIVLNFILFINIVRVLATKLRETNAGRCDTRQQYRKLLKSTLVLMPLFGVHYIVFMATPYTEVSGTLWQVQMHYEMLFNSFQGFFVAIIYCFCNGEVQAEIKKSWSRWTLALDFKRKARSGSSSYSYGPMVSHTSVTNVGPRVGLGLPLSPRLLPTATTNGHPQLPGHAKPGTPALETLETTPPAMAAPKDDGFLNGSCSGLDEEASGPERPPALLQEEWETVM
UniProt O60895, residues 43-175: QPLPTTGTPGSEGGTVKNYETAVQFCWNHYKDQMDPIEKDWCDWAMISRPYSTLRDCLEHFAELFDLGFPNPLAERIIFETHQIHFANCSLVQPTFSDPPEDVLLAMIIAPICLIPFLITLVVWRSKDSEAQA
UniProt P32121: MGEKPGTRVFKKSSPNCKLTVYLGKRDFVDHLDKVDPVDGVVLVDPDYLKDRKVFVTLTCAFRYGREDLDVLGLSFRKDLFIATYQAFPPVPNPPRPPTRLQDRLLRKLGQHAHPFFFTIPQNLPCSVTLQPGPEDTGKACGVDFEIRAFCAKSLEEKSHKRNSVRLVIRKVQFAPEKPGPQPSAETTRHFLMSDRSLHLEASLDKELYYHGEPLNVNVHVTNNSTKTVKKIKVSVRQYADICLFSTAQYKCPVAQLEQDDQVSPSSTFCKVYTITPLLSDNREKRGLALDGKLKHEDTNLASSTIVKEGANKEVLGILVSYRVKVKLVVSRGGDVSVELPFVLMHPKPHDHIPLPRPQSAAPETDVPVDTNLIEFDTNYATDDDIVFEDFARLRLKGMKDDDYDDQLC

The target of test [1] is HA-PTH1R_(mCitrine) (human) (UniProt Q03431). The test is described as follows: FRET or BRET; FRET acceptor photobleaching by confocal microscopy at the membrane of intact HEK293 cells transiently coexpressing mCitrine-tagged acceptor and mTurquoise2-tagged donor; FRET buffer pH 7.4 with 0.1% BSA, room temperature.
Test [2] addresses β2AR_(mCitrine) (UniProt P07550). The description is as above.
In test [3] the target is HA-PTH1R_(NanoLuc) (human) (UniProt Q03431). Kind of test: FRET or BRET; BRET in a plate reader, intact HEK293T cells coexpressing NanoLuc-tagged receptor (donor) and mVenus- or YFP-tagged partner (acceptor), with or without RAMP2wt; stimulated with PTH or PTHrP (PTH1R) or isoprenaline (β2AR); 37 °C, FRET buffer with furimazine.

On to RAMP2mT2 (from UniProt O60895 43-175), for which the figures for the binding entry in test [1] and in test [2] were “binds” and “no binding”, respectively.
Regarding “β-arrestin2_(mVenus) (from UniProt P32121 1-409)”, in test [3], the binding result was “binds”.

The values are drawn from publication PMC9371678.
